The source of these data is patent publication US20100093643A1 (priority 2006, published 2010).

The data set is described as follows: peptide synthesis.

On to “Boc-Tyr(Boc)-(N^δ—Ac)-D-Orn-Gly-Phe(p-NO2)—NH2”, for which the step yield (coupling step) is 31%.

Turning to Tyr-(N^δ—Ac)-D-Orn-Gly-Phe(p-NO2)—NH2, the step yield (late stage modification step) is 90%.
